In article PMC4646322 (The Journal of Biological Chemistry, 2015):
No constants are given. Whether binding was seen depends on the method and setting. Some results given as binding are weak or reduced against the parent protein; the word gives no strength.

What was measured:
[1] = molecular target: Full-length E. coli TolR(1–142) (Escherichia coli K12) (UniProt P0ABV6); test: native MS; native state ESI-MS, TolR(1–142) 30 μM, 100 mM ammonium acetate with 0.05% LDAO; freed from LDAO micelles in the collision cell; both purified
[2] = molecular target: E. coli TolR(36–133) (Escherichia coli K12) (UniProt P0ABV6); test: condition: only at low micromolar concentrations (lowest sample 20 μM); SEC-MALS; SEC-MALLS, Superdex75 10/300, 50 mM Tris pH 7.5, 150 mM NaCl; the lowest protein concentration (20 μM loaded; 'low micromolar'); both purified

B1: Full-length E. coli TolR(1–142) (protein, UniProt P0ABV6 1-142)
chain: GAMMARARGRGRRDLKSEINIVPLLDVLLVLLLIFMATAPIITQSVEVDLPDATESQAVSSNDNPPVIVEVSGIGQYTVVVEKDRLERLPPEQVVAEVSSRFKANPKTVFLIGGAKDVPYDEIIKALNLLHSAGVKSVGLMTQPI
binding [1]: binds

B2: E. coli TolR(36–133) (domain or fragment, Escherichia coli K12)
chain: GAMAPIITQSVEVDLPDATESQAVSSNDNPPVIVEVSGIGQYTVVVEKDRLERLPPEQVVAEVSSRFKANPKTVFLIGGAKDVPYDEIIKALNLLHSAGVK
notes: three residues left at the N terminus after cleavage by tobacco etch virus protease; TolR, Escherichia coli K12, residues 36-133 (9 C-terminal residues deleted); expected mass 10,768.2 Da; Dimer that dissociates on dilution; essentially monomeric at low micromolar concentrations; source: E. coli BL21 DE3, purified (HisTrap, TEV cleavage, Superdex75); not shown: His6, N-terminal, cleaved
binding [2]: no binding
